Here are results for 42 sequences from PMC7819943, “Rice protein-binding microarrays: a tool to detect cis-acting elements near promoter regions in rice”.

Protein sequences, listed by entry. Tags and fused reporters are not part of them.
UniProt Q0JBA9, entry or part of it: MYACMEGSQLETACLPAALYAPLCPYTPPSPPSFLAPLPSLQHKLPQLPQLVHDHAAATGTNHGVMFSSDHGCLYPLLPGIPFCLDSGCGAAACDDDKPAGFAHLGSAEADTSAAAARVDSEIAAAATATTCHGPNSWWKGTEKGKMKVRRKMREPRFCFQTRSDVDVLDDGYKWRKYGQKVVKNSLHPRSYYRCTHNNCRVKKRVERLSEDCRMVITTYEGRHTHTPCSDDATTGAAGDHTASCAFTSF

Some of the results follow.

The target of the experiment is OsWRKY34 (Oryza sativa, UniProt Q0JBA9 1-250). Nature of the experiment: protein-binding microarray (RPBM); PBS, 2% BSA, 51.3 ng/ul salmon testes DNA, 50 uM zinc acetate, 200 nM TF, 25 C, 1 h; high values mean tight binding. To be noted: protein: recombinant; tags: N-terminal polyhistidine and DsRed monomer fusion (pET32a); label: CyDye5-dUTP incorporated in the synthesized complementary strand; 3' TTTTT single-stranded linker to array surface; dsDNA, one strand shown. An outline of the steps:
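A custom Agilent array was converted to double-stranded form by primer extension with Cy5-dUTP and blocked with 2% BSA. Protein at 200 nM in PBS with 2% BSA, salmon testes DNA and 50 µM zinc acetate was applied for 1 h at 25 °C, followed by washing. The proteins were polyhistidine–DsRed N-terminal fusions of transcription factors, expressed in E. coli BL21-CodonPlus and Ni–NTA-purified. The binding signal is per-feature fluorescence intensity (arbitrary units) from an Axon 4000B scanner.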
With “CTTTTTCAAGCCATGGTTTGTCTTGGAGCTTTATATATTACGGAGTCACCTAGTGCAG”, the binding signal was 9870 fluorescence intensity (a.u.).

Consider “GTACCAATCGTCTCATCATGATCTAAGCCAAATCTAAACACGGAGTCACCTAGTGCAG”, for which the binding signal is 9450 fluorescence intensity (a.u.).

On to “TTCATATTTTTGCTCTATTCCCGTCACTGCATCCGTTCTACGGAGTCACCTAGTGCAG”, for which the binding signal is 13000 fluorescence intensity (a.u.).

Turning to “TTTCTTGGTGCGTGGTTACTTTCTTAGGGATGACAGGTGGCGGAGTCACCTAGTGCAG”, the binding signal was 9830 fluorescence intensity (a.u.).

Consider “TTTTTTTATTCGTGTCTGAAAATCATTTCCGATATCCGGTCGGAGTCACCTAGTGCAG”, for which the binding signal is 8470 fluorescence intensity (a.u.).

As for “GGGAGGGAGGGATCAAATGCAGGCAGTTCAATAGAAAAAGCGGAGTCACCTAGTGCAG”, the binding signal is 8960 fluorescence intensity (a.u.).

For “GTTTGCGTTCGTTCATCTGCCTGCGTTTTCCACGCCTCTCCGGAGTCACCTAGTGCAG”, the binding signal was 11600 fluorescence intensity (a.u.).

With “GTAAATATACCTATTCTGCTCATTTTGCCCTTGTTGGAGTCGGAGTCACCTAGTGCAG”, the binding signal is 9100 fluorescence intensity (a.u.).

Consider “CCTTTTTCCCTTTATTTCCGTATTGATTGCGCAATTATTCCGGAGTCACCTAGTGCAG”, for which the binding signal was 10500 fluorescence intensity (a.u.).

With “GTTAACTTTTTAGCACATGTTTGACCGTTCGTCTTATTCACGGAGTCACCTAGTGCAG”, the binding signal is 12600 fluorescence intensity (a.u.).

For “CCACTGCTCCTCACGCCGTTCACATTACCATTCTAATAAACGGAGTCACCTAGTGCAG”, the binding signal was 8070 fluorescence intensity (a.u.).

Consider “TGTCGTCGTCCCGGTCTTCGTCGTAGTCGTCTCCTGCCGGCGGAGTCACCTAGTGCAG”, for which the binding signal was 11100 fluorescence intensity (a.u.).

For “CTCTTATCTCACCCTCTGCAATCATCTTACTACCTCCGTCCGGAGTCACCTAGTGCAG”, the binding signal was 9290 fluorescence intensity (a.u.).

“GCTGCCCTGCCACCTTCGCCTCACGAACGCCAGCCTCGCTCGGAGTCACCTAGTGCAG”: the binding signal was 8300 fluorescence intensity (a.u.).

Regarding “CTTTCTCCTGTGTGATTTACGTCTTGTAGTTTCTGTGAGTCGGAGTCACCTAGTGCAG”, the binding signal was 8670 fluorescence intensity (a.u.).

For “CTGGTTTTGTGTTTCGAGAACGTTTTTTATCCCGATGACACGGAGTCACCTAGTGCAG”, the binding signal is 11400 fluorescence intensity (a.u.).

With “TTTTTTGAATAAGACAAATGGAAAAAGTCAACGGCGTCATCGGAGTCACCTAGTGCAG”, the binding signal was 9360 fluorescence intensity (a.u.).

As for “AAATTGTCCTGAAAGCTCTGTGACCGAACCAATGTCTTTGCGGAGTCACCTAGTGCAG”, the binding signal was 8370 fluorescence intensity (a.u.).

For “GCGCCACTCTCGCTGACTCGCTCGCTGCCAAGCTCGCCGGCGGAGTCACCTAGTGCAG”, the binding signal was 8440 fluorescence intensity (a.u.).

“GATCGTGACGACTCACCAAGGCCTAGGATTATTTATGTATCGGAGTCACCTAGTGCAG”: the binding signal is 8040 fluorescence intensity (a.u.).

Take “ATAGCAGCTCATAGTATTCTCCATTGCAATCCTGTCGTCTCGGAGTCACCTAGTGCAG”: the binding signal was 8150 fluorescence intensity (a.u.).

In the case of “TGTCAATTTGTATTTTGAAGGGTTGGTCCAATACACTAAGCGGAGTCACCTAGTGCAG”, the binding signal is 8020 fluorescence intensity (a.u.).

As to “TTATACTAATAGTTGGCGTATCATATCTGGTTTTATAATTCGGAGTCACCTAGTGCAG”, the binding signal is 8720 fluorescence intensity (a.u.).

For “GGCATATAATAGATTCTCTCTTTCTCTCTTACTCCTTTTTCGGAGTCACCTAGTGCAG”, the binding signal was 8150 fluorescence intensity (a.u.).

In the case of “TCGCTAACCTCGCCCACCACTTTCCTGATCTAGCCCCATACGGAGTCACCTAGTGCAG”, the binding signal was 8960 fluorescence intensity (a.u.).

For “TTCTTCTTTCATAAAACCACATCATCTTACTTTTACATTTCGGAGTCACCTAGTGCAG”, the binding signal was 9390 fluorescence intensity (a.u.).

For “CTCGCTTCTTCTTCCTTCTTTCCGTCCTCGCCGCCCCGCGCGGAGTCACCTAGTGCAG”, the binding signal is 8470 fluorescence intensity (a.u.).

On to “GATGTCAACATTGGTCTGTGTGGTGTGTGCTCCGGATGATCGGAGTCACCTAGTGCAG”, for which the binding signal was 11200 fluorescence intensity (a.u.).

As for “CCGGCCATCTGCATTGCATTTGCTCTCTCTCTCTCTCTCTCGGAGTCACCTAGTGCAG”, the binding signal is 10400 fluorescence intensity (a.u.).

As for “GTGGGGCGGTGGCTGCTGCATTGCATTGGGCGGGAGAGATCGGAGTCACCTAGTGCAG”, the binding signal was 17200 fluorescence intensity (a.u.).

Take “TACTGTTTAAAATTATCCAAGGCTTTTATGGGGCGGGCTTCGGAGTCACCTAGTGCAG”: the binding signal was 14800 fluorescence intensity (a.u.).

For the sequence “CTAGGAAGCCACCAACCGCGGCGTTTGATCTCAGGTTTGACGGAGTCACCTAGTGCAG”, the binding signal is 8230 fluorescence intensity (a.u.).

For the sequence “CAATGTATGATCACGTCTCCTTCTGTTCTTGGTCTGTCAACGGAGTCACCTAGTGCAG”, the binding signal was 10300 fluorescence intensity (a.u.).

Consider “ATTCCACTCATATTATTACATGAAATTATTTTCTCCTCAACGGAGTCACCTAGTGCAG”, for which the binding signal was 9010 fluorescence intensity (a.u.).

For the sequence “TTGGTCTGTTTGCTTCTATTTGAACTTCACTCTTACAGAGCGGAGTCACCTAGTGCAG”, the binding signal was 9240 fluorescence intensity (a.u.).

On to “TCATCTCACGCTGTTGACTTTCTCTTTTTTTTTCGGGGAGCGGAGTCACCTAGTGCAG”, for which the binding signal was 18000 fluorescence intensity (a.u.).

In the case of “CATCCATCCTGTGCATTACTTCACTATATCAGAAGAATTCCGGAGTCACCTAGTGCAG”, the binding signal was 9070 fluorescence intensity (a.u.).

For the sequence “CTCTCACACGCACGCGCGTCGCCGCCACTACACTCTCATGCGGAGTCACCTAGTGCAG”, the binding signal is 10100 fluorescence intensity (a.u.).

On to “GATGTTTTTCATGCAACATATGGCTTTAACACTCACAGTTCGGAGTCACCTAGTGCAG”, for which the binding signal is 9000 fluorescence intensity (a.u.).

Consider “TCCGACGGCCGCCTCATCATCGACTTCATCGGTACGCCTCCGGAGTCACCTAGTGCAG”, for which the binding signal is 8670 fluorescence intensity (a.u.).

“CTAGCCCATCGTTAATCTAGTACCACCTATTTTATATACTCGGAGTCACCTAGTGCAG”: the binding signal is 10400 fluorescence intensity (a.u.).

With “AGGAGGTGCTTATAGAGGTATGATGTGCGGTGTTTATGTTCGGAGTCACCTAGTGCAG”, the binding signal was 10500 fluorescence intensity (a.u.).
